Assay: general procedure: solution-phase peptide synthesis; EDCI, HOBt, NMM
Conditions: late stage modification step

Ac-Pro-Arg-Pro-Leu-spirolactam-Ala-Pro-Gly-OH
step yield: 98% yield
